This is one part of the list. Shown are side measurements of this screen, not its main read-out; they come without a call. Most of these compounds were active or inconclusive in the main read-out, so they are no random draw. Potencies come from curve fits of mixed quality, noted in brackets.
Assay: qHTS Assay for Modulators of Lamin A Splicing
Details: HeLa LMNA splicing GFP/RFP minigene ratio, 48 h
Outline: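 S3 HeLa stable clones carrying a lamin A-EGFP splicing minigene plus DsRed2 were seeded at 600 cells/well in Opti-MEM with 2% FBS, pin-dosed and incubated 48 h at 37°C. Acumen cytometry (488 nm) gave the GFP/RFP total-intensity ratio.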

[1] = measured here: GFP splicing reporter channel
[2] = measured here: RFP viability control channel

SMILES | AC50 [1] | AC50 [2]
c1csc(C2Nc3ccccc3-c3nc4ccccc4n32)c1 (configuration not stated) | 11.2 µM [rising, partial curve] | 20 µM [rising, partial curve, poor fit]
COC(=O)CC1COc2ccccc2N1C(=O)c1cccc(C(F)(F)F)c1 (configuration not stated) | 35.5 µM [falling, single point] | 0.0224 µM [falling, full curve, poor fit]
COc1ccc(-c2cc(C(C)=O)c(C)n2CCC(=O)Nc2cccc(C)c2C)cc1 | – | 0.00447 µM [falling, full curve, poor fit]
CC(C)c1ccc2[nH]c(O)c(N=NC(=S)NCCc3ccccc3)c2c1 | – | 0.398 µM [rising, partial curve, poor fit]
O=C(Nc1ccc2nc3n(c(=O)c2c1)CCCC3)c1cc([N+](=O)[O-])ccc1F | 35.5 µM [falling, single point] | 12.6 µM [falling, partial curve]
COc1cc2nc(CN3CCN(c4ncc(C(F)(F)F)cc4Cl)CC3)[nH]c(=O)c2cc1OC | 0.501 µM [falling, partial curve] | 0.398 µM [falling, partial curve]
Fc1ccc(-c2nc3cnccn3c2NC2CCCC2)cc1 | 5.62 µM [rising, single point] | –
Cc1cc(S(=O)(=O)N2CCN(c3ccccc3C)CC2)ccc1F | – | 14.1 µM [rising, single point]
Cc1ccc(Cc2cnc(N3C(=N)SC(c4ccccc4)C3=O)s2)cc1 (configuration not stated) | – | 14.1 µM [rising, partial curve]
Cc1ccc(-n2nnnc2-c2cnc(N3CCCC3)nc2C(F)(F)F)cc1 | 2.24 µM [rising, full curve, poor fit] | 7.94 µM [rising, partial curve]
CCN(CCn1cccn1)C(=O)CCc1nnc(CCCc2ccccc2)o1 | – | 0.01 µM [falling, full curve, poor fit]
Clc1ccc(SCc2cc(N3CCOCC3)nc(-c3ccccn3)n2)cc1 | 35.5 µM [rising, single point] | 14.1 µM [rising, partial curve]
O=C(CON=C1c2ccccc2-c2ccccc21)NC12CC3CC(CC(C3)C1)C2 | 31.6 µM [rising, single point] | 31.6 µM [rising, single point]
O=C(NCCn1ccc2ccccc21)C1CCCCC1 | – | 35.5 µM [rising, single point]
COc1ccc(C2C3=C(OC(C)=O)c4ccccc4C3=Nc3c2c(=O)n(C)c(=O)n3C)cc1 (configuration not stated) | 20 µM [rising, partial curve] | –
COc1cc(C(=O)Oc2ccccc2/C=N/NC(=O)c2ccc(Cl)cc2Cl)cc(OC)c1OC | – | 17.8 µM [rising, single point]
CCNC(=O)C1=C(O)c2sccc2N(C)S1(=O)=O | – | 0.02 µM [falling, full curve, poor fit]
COc1ccc(CCN2C(=O)c3[nH]nc(-c4ccccc4O)c3C2c2ccc(C)cc2)cc1OC (configuration not stated) | – | 35.5 µM [rising, single point]
CC(=O)N1CCCc2cc(S(=O)(=O)N(CC(C)C)CC(C)C)ccc21 | 28.2 µM [rising, single point] | 35.5 µM [rising, single point]
Cc1ccc(-n2nnnc2SCC(=O)N2CCc3ccccc3C2)c(C)c1 | – | 35.5 µM [rising, single point]
O=C(N/N=C/c1c(O)ccc2ccccc12)c1cccc(C(F)(F)F)c1 | – | 11.2 µM [rising, partial curve]
O=C(c1ccc2c(=O)n(-c3ccccc3)c(=O)[nH]c2c1)N1CCN(c2ccc(F)cc2)CC1 | 14.1 µM [rising, partial curve] | 14.1 µM [rising, partial curve]
CC(C)COc1ccc2[nH]c3c(c2c1)CCCC3=O | – | 3.16 µM [falling, full curve]
CCN1C(=O)/C(=C2/C(=O)N3c4c(cc(OC(C)=O)cc42)C(C)=CC3(C)C)SC1=S | 0.282 µM [rising, full curve, poor fit] | 0.112 µM [rising, full curve, poor fit]
CCc1n[nH]c(=S)n1N=C1CCC(C)CC1 (configuration not stated) | – | 35.5 µM [falling, partial curve, poor fit]
CCN1C(=O)N(C)[C@@H](c2ccccc2)C(C(C)=O)=C1C | 0.158 µM [falling, full curve, poor fit] | 0.158 µM [falling, full curve]
CCC1CCCCN1C(=O)c1ccc(OC2CCN(C(=O)C3CC3)CC2)cc1 (configuration not stated) | – | 3.98 µM [rising, partial curve]

One compound at a time, from the list above.
CCN1C(=O)N(C)[C@@H](c2ccccc2)C(C(C)=O)=C1C as listed: AC50 [1]: 0.158 µM [falling, full curve, poor fit]; AC50 [2]: 0.158 µM [falling, full curve]
COC(=O)CC1COc2ccccc2N1C(=O)c1cccc(C(F)(F)F)c1 (configuration not stated) as listed: AC50 [1]: 35.5 µM [falling, single point]; AC50 [2]: 0.0224 µM [falling, full curve, poor fit]
CCN(CCn1cccn1)C(=O)CCc1nnc(CCCc2ccccc2)o1 as listed: AC50 [2]: 0.01 µM [falling, full curve, poor fit]

(list continues)

SMILES | AC50 [1] | AC50 [2]
O=C(Cc1cccs1)Nc1cc(SCCO)cc([N+](=O)[O-])c1 | 10 µM [rising, partial curve] | 14.1 µM [rising, single point]
N#Cc1c(NC(=O)CSc2ncc(-c3ccccc3)n2CC2CCCO2)sc2c1CCCC2 (configuration not stated) | 14.1 µM [rising, single point] | 15.8 µM [rising, partial curve]
CC1C(=O)N2CCCc3cc(S(=O)(=O)Nc4ccc(Br)cc4F)cc1c32 (configuration not stated) | 0.0631 µM [rising, full curve, poor fit] | –
CSc1ccc2c(c1)[C@H](N1CCN(C)CC1)Cc1ccccc1S2 | 7.08 µM [falling, partial curve, poor fit] | –
CNC(=S)Nc1ccc(-c2nc3ccc(C)cc3s2)cc1 | 28.2 µM [rising, single point] | 35.5 µM [rising, single point]
CC(C)[C@@H]1NC(=O)N(c2ccc(Oc3ccccc3)cc2)C1=O | 14.1 µM [rising, single point] | 35.5 µM [rising, single point]
O=C(Nn1c(SCc2ccc([N+](=O)[O-])cc2)nc2ccccc2c1=O)c1ccc(F)cc1 | – | 8.91 µM [rising, partial curve]
O=C(Cn1c(=O)oc2cc(S(=O)(=O)NCc3ccccc3)ccc21)N(CCO)Cc1ccccc1 | 0.708 µM [rising, full curve, poor fit] | –
CN(C)S(=O)(=O)c1cccc(NC(=O)CCSc2ccc(Cl)cc2)c1 | 12.6 µM [rising, partial curve] | 15.8 µM [rising, partial curve]
CC1CCCN(C(=O)C2CCN(CCCc3ccccc3)CC2)C1 (configuration not stated) | 5.62 µM [rising, single point] | –
O=C(Cc1ccc(Cl)cc1)Nc1ccc(S(=O)(=O)Nc2cnc3ccccc3n2)cc1 | 0.00794 µM [rising, full curve, poor fit] | 0.01 µM [rising, full curve]
O=C(Cc1ccc(NS(=O)(=O)c2ccc(F)cc2)cc1)NCc1ccccc1 | – | 35.5 µM [rising, single point]
Cc1ccc(C)c(S(=O)(=O)N2CC(=O)N(CCc3ccccc3)C(=O)C2)c1 | 20 µM [rising, single point] | 31.6 µM [rising, single point]
COc1ccccc1-n1c(SCC(=O)Nc2ccccc2C)nc(O)cc1=O | – | 6.31 µM [falling, single point]
Cc1ccc(C)c(NC(=O)C(Sc2nc3ccc(C)cc3[nH]2)c2ccccc2)c1 (configuration not stated) | 12.6 µM [rising, single point] | 35.5 µM [rising, single point]
CC(C)NC(=O)c1noc2cc([N+](=O)[O-])ccc12 | 2 µM [falling, full curve, poor fit] | 5.01 µM [falling, partial curve]
COc1ccc(OC)c(NC(=O)CSc2nnnn2-c2ccccc2F)c1 | 35.5 µM [rising, single point] | 35.5 µM [rising, single point]
Cc1ccc(S(=O)(=O)N2CCOCC2)cc1C(=O)N1C(=O)c2cccc(N)c2C1=O | – | 35.5 µM [rising, single point]
Cc1ccccc1OCC(=O)Nc1ccc(Cc2ccncc2)cc1 | 14.1 µM [rising, single point] | 22.4 µM [rising, single point]
COc1ccc(CCNC(=O)C2CC(=O)N(c3ccc(Br)cc3)C2)cc1OC (configuration not stated) | 0.00447 µM [rising, full curve, poor fit] | –
CCS(=O)(=O)Nc1ccc(-c2cc(-c3ccccc3)c3cc(C)ccc3n2)cc1 | 17.8 µM [falling, single point] | –
CC(C)(C)c1ccc(/C=N/OCC(=O)NCc2ccccc2)cc1 | – | 17.8 µM [rising, single point]
COc1c(O[C@H]2O[C@@H](CO)[C@@H](O)[C@@H](O)[C@@H]2O)cc2c(c1OC)-c1ccc(SC)c(=O)cc1[C@H](NC(C)=O)CC2 | 1.41 µM [falling, single point] | 5.01 µM [falling, single point]
CC1=C(C(=O)OCc2ccccc2)C(c2ccc(C)o2)C2=C(CCCC2=O)N1 (configuration not stated) | – | 31.6 µM [rising, single point]
CN1Cc2c(N)cccc2C(c2ccccc2)C1 (configuration not stated) | 35.5 µM [falling, partial curve, poor fit] | 0.00316 µM [falling, full curve, poor fit]
COc1cc(CN2CC(=O)N(c3ccc(C)cc3)C2=S)cc(OC)c1OC | – | 28.2 µM [rising, single point]
